PubChem BioAssay AID1053208 – Peter MacCallum Cancer Centre, 2014
In all, the deposit lists about 17,000 reagents; shown is a random part of them. In the full data, 788 (4.7%) were called active. 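Calls rest on z-score classes alone; an extra cut-off of viability at most 70% of control was not applied to them.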 Entries without a mark were called inactive. The numbers tell different reagents against one gene apart. Not all columns of the deposit are shown.

Screen: 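Synthetic lethal interactions between gene loss and doxorubicin in osteosarcoma cells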 (primary screen)
Cell system: mouse osteosarcoma cells, early-passage culture from an engineered mouse model of fibroblastic bone tumour
Reagent: siRNA pool against mouse genes, 40 nM
Timing: about 120 h (48 h before drug, then 72 h with drug)
Challenge: doxorubicin 100 nM for 72 h, roughly 30-40% inhibitory dose
Measurement: 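Viability read as ATP luminescence after 72 h of 100 nM doxorubicin or none, duplicate wells averaged, scaled to non-targeting siRNA, then expressed as robust z-scores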
Direction: viability z-score with doxorubicin: higher = more viable cells under doxorubicin; viability z-score without drug: higher = more viable cells with knock-down alone
Call rule: 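Called active if knock-down leaves viability unchanged without drug (z within -2 to 2) but lowers it with doxorubicin (z at or under -2)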

Silencing of Pdcl3 resulted in: combined z-score class no change with or without drug; viability z-score with doxorubicin -1.35; viability z-score without drug -0.17.
For Dnmt3l the deposit lists combined z-score class no change with or without drug; viability z-score with doxorubicin 0.22; viability z-score without drug -0.51.
Depletion of Gphr gave: combined z-score class no change with or without drug; viability z-score with doxorubicin 0.79; viability z-score without drug -0.84.
Against Rnf14, the values are combined z-score class no change with or without drug; viability z-score with doxorubicin 1.35; viability z-score without drug 0.34.
Trmt10c scored combined z-score class no change with or without drug; viability z-score with doxorubicin -0.34; viability z-score without drug -1.35.
Paxip1 gave combined z-score class no change with or without drug; viability z-score with doxorubicin -1.12; viability z-score without drug -1.01.
After knock-down of Or2b4, the screen gave combined z-score class no change with or without drug; viability z-score with doxorubicin -1.8; viability z-score without drug -1.35.
With knock-down of Sqor, the record shows combined z-score class no change with or without drug; viability z-score with doxorubicin -0.67; viability z-score without drug -0.84.
D930020B18Rik gave combined z-score class high cell count without drug only; viability z-score with doxorubicin 0.45; viability z-score without drug 2.19.
Against Or1o11, the values are combined z-score class no change with or without drug; viability z-score with doxorubicin -0.67; viability z-score without drug 0.
After knock-down of Abcg5, the screen gave combined z-score class no change with or without drug; viability z-score with doxorubicin 0.79; viability z-score without drug 0.17.
Or5an1 #1 scored combined z-score class no change with or without drug; viability z-score with doxorubicin -0.45; viability z-score without drug -0.17.
Knock-down of Or5an1 #2 came out at: combined z-score class no change with or without drug; viability z-score with doxorubicin 0.11; viability z-score without drug 0.51.
Il13ra1 showed combined z-score class high cell count with doxorubicin only; viability z-score with doxorubicin 2.47; viability z-score without drug 1.85.
Silencing of Net1 came out at: combined z-score class no change with or without drug; viability z-score with doxorubicin 1.12; viability z-score without drug 0.17.
Silencing of B130006D01Rik gave: combined z-score class no change with or without drug; viability z-score with doxorubicin 0; viability z-score without drug -0.17.
For A930018M24Rik the deposit lists combined z-score class no change with or without drug; viability z-score with doxorubicin -0.79; viability z-score without drug 0.51.
Silencing of Rdh16 came out at: combined z-score class no change with or without drug; viability z-score with doxorubicin -0.67; viability z-score without drug 0.17.
Rad17 scored combined z-score class no change with or without drug; viability z-score with doxorubicin 1.8; viability z-score without drug 0.
Against Ociad1, the values are combined z-score class no change with or without drug; viability z-score with doxorubicin -0.67; viability z-score without drug 0.17.
Depletion of Sult4a1 resulted in: combined z-score class no change with or without drug; viability z-score with doxorubicin -1.69; viability z-score without drug -1.18.
Knock-down of Or13d1 resulted in: combined z-score class no change with or without drug; viability z-score with doxorubicin 0.9; viability z-score without drug 1.85.
Tek scored combined z-score class low cell count with doxorubicin only (active); viability z-score with doxorubicin -2.25; viability z-score without drug -1.18.
Depletion of Trim36 gave: combined z-score class high cell count without drug only; viability z-score with doxorubicin 1.57; viability z-score without drug 2.19.
With knock-down of Tgfb1i1, the record shows combined z-score class no change with or without drug; viability z-score with doxorubicin -0.9; viability z-score without drug 0.
Depletion of Atf6b gave: combined z-score class no change with or without drug; viability z-score with doxorubicin 0.22; viability z-score without drug -0.51.
With knock-down of Ampd3 the results were combined z-score class no change with or without drug; viability z-score with doxorubicin -0.45; viability z-score without drug -0.51.
With knock-down of Cisd2, the record shows combined z-score class no change with or without drug; viability z-score with doxorubicin -1.35; viability z-score without drug 0.34.
